Data: patent US6235502
The exact form of at least one protein or probe is not confirmed.

System: Sequenase 2.0 (modified T7 DNA polymerase)
Test: binding assay
Settings: rolling circle dNTP incorporation on DE81 filters; 10 mM Mg acetate, 50 mM K acetate, pH 7.9, 37 C, with E. coli SSB; purified recombinant protein; protein details: United States Biochemical; folded or branched DNA

Sequence: TCTGTTTATAGGGCCTCTTCGCTATTACGCCAGC [M13 (+) strand ssDNA circle singly primed with F4]
- binding result: binds
